In PMC7827196:
The exact form of at least one protein or probe is not confirmed. For part of these data: Where a protein sequence is shown, tags need not be part of it.

Experiments:
Assay in all cases: DNase I footprinting
MotB-His + H-NS = conditions: both proteins, 40 mM Tris-acetate pH 7.9, 150 mM potassium glutamate, 4 mM magnesium acetate, 0.1 mM EDTA, 0.1 mM DTT, 0.1 mg/mL BSA, 0.05 pmol DNA in 10 uL, recombinant protein, protein details: His
H-NS = target: T1, H-NS (UniProt P0ACF8); conditions: H-NS alone, 40 mM Tris-acetate pH 7.9, 150 mM potassium glutamate, 4 mM magnesium acetate, 0.1 mM EDTA, 0.1 mM DTT, 0.1 mg/mL BSA, 0.05 pmol DNA in 10 uL, recombinant protein
T1 sequence (looked up, limits assumed): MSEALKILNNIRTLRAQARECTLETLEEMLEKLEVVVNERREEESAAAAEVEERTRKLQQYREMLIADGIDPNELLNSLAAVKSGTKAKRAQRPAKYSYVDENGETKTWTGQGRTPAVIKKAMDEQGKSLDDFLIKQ

[1] = target: T2, MotB-His (Escherichia phage T4) (UniProt Q01437); conditions: MotB alone, 40 mM Tris-acetate pH 7.9, 150 mM potassium glutamate, 4 mM magnesium acetate, 0.1 mM EDTA, 0.1 mM DTT, 0.1 mg/mL BSA, 0.05 pmol DNA in 10 uL, recombinant protein, protein details: His
T2 sequence (looked up, limits assumed): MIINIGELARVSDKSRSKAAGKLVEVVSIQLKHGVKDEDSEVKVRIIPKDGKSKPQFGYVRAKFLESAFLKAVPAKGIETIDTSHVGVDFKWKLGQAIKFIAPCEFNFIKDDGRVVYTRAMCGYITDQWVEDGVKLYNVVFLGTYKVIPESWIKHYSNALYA

Measured: binding result

CTTCTTCCCGCTGGAAATCTGACGTTATTCGTTTTGTTCATCCAGTAGGATTTGGATTTATAGCAATTACCCTTTTAACAATGTTTATTAATGTTGGTTTAACTCTTAAACATACAGAGACTATAATTAATAAATACAAAAACTATAAATGGGATTCTGGATTGCCTACTGAATATGCCGACAGAATAGCTAAATTAACTCCAACCGGTGAAATTGAG (double strand) [Pl8 fragment (T4 late gene 8 promoter)]
binds: MotB-His + H-NS; pattern resembles MotB, not H-NS, label: 5'-32P on nontemplate strand | H-NS; protects portions of the DNA, label: 5'-32P on nontemplate strand | [1]; total protection at 2.9 MotB:1 bp, none at lower levels, label: 5'-32P on nontemplate strand

GCTCGCATCAATATTCATGCCACATTTGCCATCAGGGGTTGCCTCAGATTCTCAGTATGTTAGGGTAGAAAAAAGTGACTATTTCCATTGGGTAATATATCGACATAGACAAATAAAGGAATCTTTCTATTGCATGGCAATTAAATTAGAAATTAAAAATCTTTATAAAATATTTGGCGAGCATCCACAGCGAGCGTTCAAATATATCGAACAAGGACTTTCAAAAGAACAAATTCTGGAAAAAACTGGGCTATCGCTTGGCGTAAAAGACG (double strand) [PproV fragment (272 bp)]
binds: MotB-His + H-NS; together or sequential, MotB-like complete protection at 16 pmol MotB, possibly cooperative, label: 5'-32P | H-NS; 4-32 pmol, protects regions downstream of TSS, label: 5'-32P | [1]; near-complete protection only at ~2.4 MotB monomers:1 bp (32 pmol), no significant change at lower levels, label: 5'-32P
